## Drug screen on melanoma cell lines: apoptosis marker

Source: doi:10.1371/journal.pone.0140310, primary screening data, rounded.

Drug key:
BI-78D3 (1 µM): O=c1[nH]nc(Sc2ncc([N+](=O)[O-])s2)n1-c1ccc2c(c1)OCCO2
tanespimycin (0.01 µM): C=CCNC1=C2C[C@@H](C)C[C@H](OC)[C@H](O)[C@@H](C)/C=C(\C)[C@H](OC(N)=O)[C@@H](OC)/C=C\C=C(/C)C(=O)NC(=CC1=O)C2=O
BMS-536924 (1 µM): Cc1cc(N2CCOCC2)cc2[nH]c(-c3c(NC[C@@H](O)c4cccc(Cl)c4)cc[nH]c3=O)nc12
GW0742 (10 µM): Cc1cc(SCc2sc(-c3ccc(C(F)(F)F)c(F)c3)nc2C)ccc1OCC(=O)O
darinaparsin (2 µM): C[As](C)SC[C@H](NC(=O)CC[C@H](N)C(=O)O)C(=O)NCC(=O)O
indole-3-carbinol (4 µM): OCc1c[nH]c2ccccc12
tozasertib (0.03 µM): Cc1cc(Nc2cc(N3CCN(C)CC3)nc(Sc3ccc(NC(=O)C4CC4)cc3)n2)n[nH]1
NVP-TAE684 (0.4 µM): COc1cc(N2CCC(N3CCN(C)CC3)CC2)ccc1Nc1ncc(Cl)c(Nc2ccccc2S(=O)(=O)C(C)C)n1
bexarotene (10 µM): C=C(c1ccc(C(=O)O)cc1)c1cc2c(cc1C)C(C)(C)CCC2(C)C
AZD7762 (0.1 µM): NC(=O)Nc1cc(-c2cccc(F)c2)sc1C(=O)N[C@H]1CCCNC1

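Human melanoma cells were exposed to a pair of drugs for 72 h in 1,536-well plates and read by automated microscopy after fixing and staining. The read-out is the fraction of cleaved-PARP-positive nuclei, in % of that fraction in the DMSO control; 200 means twice the control level of this apoptosis marker. Concentrations were fixed for each drug; these are the higher of two levels. These are primary screening values without error estimates. The marker varies much from line to line, for technical or biological reasons.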 An unselected part of the screen is shown.

Results for BI-78D3 + AZD7762 are UACC-62: 123; SK-MEL-5: 82.9.
Results for tanespimycin + BI-78D3 are UACC-62: 319; SK-MEL-5: 146.
Results for AZD7762 + tanespimycin are UACC-62: 217; SK-MEL-5: 230.
Results for BI-78D3 + darinaparsin are UACC-62: 537; SK-MEL-5: 396.
Results for darinaparsin + tozasertib are UACC-62: 215; SK-MEL-5: 390.
Results for tanespimycin + indole-3-carbinol are UACC-62: 107; SK-MEL-5: 95.4.
Results for GW0742 + bexarotene are UACC-62: 202; SK-MEL-5: 130.
Results for indole-3-carbinol + darinaparsin are UACC-62: 133; SK-MEL-5: 150.
Results for indole-3-carbinol + AZD7762 are UACC-62: 138; SK-MEL-5: 151.
Results for BMS-536924 + tozasertib are UACC-62: 88.7; SK-MEL-5: 85.1.
Results for tanespimycin + tozasertib are UACC-62: 428; SK-MEL-5: 114.
Results for bexarotene + tanespimycin are UACC-62: 306; SK-MEL-5: 224.
Results for GW0742 + NVP-TAE684 are UACC-62: 39.4; SK-MEL-5: 86.9.
Results for BMS-536924 + darinaparsin are UACC-62: 124; SK-MEL-5: 181.
Results for darinaparsin + bexarotene are UACC-62: 184; SK-MEL-5: 60.5.
Results for indole-3-carbinol + NVP-TAE684 are UACC-62: 293; SK-MEL-5: 60.9.
Results for tozasertib + AZD7762 are UACC-62: 153; SK-MEL-5: 254.
Results for BI-78D3 + indole-3-carbinol are UACC-62: 144; SK-MEL-5: 85.4.
Results for GW0742 + tanespimycin are UACC-62: 188; SK-MEL-5: 39.7.
Results for tozasertib + BI-78D3 are UACC-62: 182; SK-MEL-5: 61.0.
Results for indole-3-carbinol + BMS-536924 are UACC-62: 163; SK-MEL-5: 152.
Results for bexarotene + BMS-536924 are UACC-62: 101; SK-MEL-5: 102.
Results for tanespimycin + BMS-536924 are UACC-62: 86.0; SK-MEL-5: 369.
Results for GW0742 + darinaparsin are UACC-62: 176; SK-MEL-5: 257.
Results for BI-78D3 + GW0742 are UACC-62: 88.4; SK-MEL-5: 52.9.
Results for darinaparsin + NVP-TAE684 are UACC-62: 134; SK-MEL-5: 1890.
Results for AZD7762 + darinaparsin are UACC-62: 95.9; SK-MEL-5: 77.6.
Results for bexarotene + BI-78D3 are UACC-62: 165; SK-MEL-5: 40.3.
Results for BMS-536924 + BI-78D3 are UACC-62: 94.5; SK-MEL-5: 286.
Results for BMS-536924 + AZD7762 are UACC-62: 108; SK-MEL-5: 168.
Results for NVP-TAE684 + BMS-536924 are UACC-62: 262; SK-MEL-5: 114.
Results for NVP-TAE684 + bexarotene are UACC-62: 265; SK-MEL-5: 77.2.
Results for AZD7762 + GW0742 are UACC-62: 233; SK-MEL-5: 37.5.

The first 4 entries again:

- BI-78D3 + AZD7762 | UACC-62: 123; SK-MEL-5: 82.9
- tanespimycin + BI-78D3 | UACC-62: 319; SK-MEL-5: 146
- AZD7762 + tanespimycin | UACC-62: 217; SK-MEL-5: 230
- BI-78D3 + darinaparsin | UACC-62: 537; SK-MEL-5: 396